PubChem BioAssay AID1224830, NIAID – 2016

- Purpose: 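Host factors that control LPS-induced TNF expression in human macrophages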 (primary screen)
- Cells: human THP-1 monocytic leukaemia cells, TNF dual-luciferase reporter clone, PMA-differentiated to macrophage-like cells
- Reagent: siRNA pool against human genes, 50 nM
- Timing: LPS for 4 h, given about 3 days after siRNA transfection
- Challenge: bacterial LPS (TLR4 ligand), 10 ng/ml
- Detection: 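TNF firefly reporter luminescence divided by renilla, normalised to the plate median, then turned into a robust z-score for each replicate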
- Direction: TNF reporter robust z-score: higher = stronger TNF reporter response to LPS
- Rule for the call: 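a well is active when its z-score exceeds 2.8 or falls below -1.5; control wells carry no call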
Shown is an unselected part of about 18,000 deposited reagents. About 2,900 of them (16%) count as active. 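Calls are made per well; low scores hint the gene aids the LPS response, high scores that it dampens it.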 Repeated entries: four replicate wells of each siRNA pool.

Target gene | TNF reporter robust z-score | outcome
NHERF4 | 1.25 | inactive
NHERF4 | -0.02 | inactive
NHERF4 | 0.59 | inactive
NHERF4 | -0.11 | inactive
RBMY1A1 | 2.71 | inactive
RBMY1A1 | 2.61 | inactive
RBMY1A1 | 1.56 | inactive
RBMY1A1 | 0.55 | inactive
IL26 | -0.36 | inactive
IL26 | -0.64 | inactive
IL26 | -0.52 | inactive
IL26 | 0.22 | inactive
CT47A9 | -0.16 | inactive
CT47A9 | 2.51 | inactive
CT47A9 | 1.17 | inactive
CT47A9 | 0.89 | inactive
HLA-DPA1 | 2.19 | inactive
HLA-DPA1 | 2.51 | inactive
HLA-DPA1 | 1.26 | inactive
HLA-DPA1 | 2.11 | inactive
DPYSL2 | -0.82 | inactive
DPYSL2 | -1.12 | inactive
DPYSL2 | -1.58 | active
DPYSL2 | -0.12 | inactive
GC | 0.29 | inactive
GC | 0.97 | inactive
GC | 0.5 | inactive
GC | 0.56 | inactive
GRXCR2 | 1.16 | inactive
GRXCR2 | 0 | inactive
GRXCR2 | -0.23 | inactive
GRXCR2 | 0.19 | inactive
CPSF1 | 0.28 | inactive
CPSF1 | 0.62 | inactive
CPSF1 | 0.41 | inactive
CPSF1 | 0.76 | inactive
LRRC4 | -2.03 | active
LRRC4 | -1.79 | active
LRRC4 | -1.15 | inactive
LRRC4 | -0.77 | inactive
H3-3A | 1.21 | inactive
H3-3A | 1.25 | inactive
H3-3A | -0.11 | inactive
H3-3A | 0.27 | inactive
HSD17B4 | -1.22 | inactive
HSD17B4 | -0.4 | inactive
HSD17B4 | -1.17 | inactive
HSD17B4 | -0.58 | inactive
ACAP1 | 0.11 | inactive
ACAP1 | 0.32 | inactive
ACAP1 | -0.16 | inactive
ACAP1 | -0.27 | inactive
IL34 | 0.26 | inactive
IL34 | -0.38 | inactive
IL34 | -0.27 | inactive
IL34 | 0.22 | inactive
PGD | -0.99 | inactive
PGD | -1.2 | inactive
PGD | -1.08 | inactive
PGD | -0.67 | inactive
LINC00452 | 0.42 | inactive
LINC00452 | 0.57 | inactive
LINC00452 | 1.1 | inactive
LINC00452 | 1.46 | inactive
ZFP90 | -0.84 | inactive
ZFP90 | -0.89 | inactive
ZFP90 | -0.31 | inactive
ZFP90 | -0.39 | inactive
PODXL2 | -0.73 | inactive
PODXL2 | -0.02 | inactive
PODXL2 | -1.39 | inactive
PODXL2 | -0.28 | inactive
FAM168B | -0.81 | inactive
FAM168B | -0.21 | inactive
FAM168B | -0.95 | inactive
FAM168B | -1.58 | active
FYB1 | 0.7 | inactive
FYB1 | 0.09 | inactive
FYB1 | -0.01 | inactive
FYB1 | -0.61 | inactive
GNG11 | 0.19 | inactive
GNG11 | -0.13 | inactive
GNG11 | 1.74 | inactive
GNG11 | -0.03 | inactive
TP53I3 | 0.07 | inactive
TP53I3 | -1.08 | inactive
TP53I3 | 0.25 | inactive
TP53I3 | 0.06 | inactive
MAP4K2 | 1.26 | inactive
MAP4K2 | 0.37 | inactive
MAP4K2 | -0.13 | inactive
MAP4K2 | 1.66 | inactive
SOBP | -1.51 | active
SOBP | -1.72 | active
SOBP | -1.69 | active
SOBP | -1.77 | active
CTNND1 | -1.52 | active
CTNND1 | -1.47 | inactive
CTNND1 | -1.48 | inactive
CTNND1 | -0.88 | inactive
BPNT1 | 1.23 | inactive
BPNT1 | -0.17 | inactive
BPNT1 | 0.85 | inactive
BPNT1 | -0.15 | inactive
CARNMT1 | -0.22 | inactive
CARNMT1 | 0.92 | inactive
CARNMT1 | 0.74 | inactive
CARNMT1 | 0.18 | inactive
PAK5 | 0.92 | inactive
PAK5 | 0.77 | inactive
PAK5 | 0.86 | inactive
PAK5 | 1.6 | inactive

Entries above whose target name begins with N or n (4):
Target gene | TNF reporter robust z-score | outcome
NHERF4 | 1.25 | inactive
NHERF4 | -0.02 | inactive
NHERF4 | 0.59 | inactive
NHERF4 | -0.11 | inactive
